# Assay results as given in the supplement of paper PMC4604168 (melanoma cell lines).
# This is one part of the list. Many values rest on one well or one pass, so single values are uncertain.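 Imaging used 1,536-well plates; nuclei positive for cleaved PARP by antibody were divided by total DNA-stained nuclei to yield the apoptosis fraction. Doses for screening kept most cells viable, and cell lines differ markedly in resting and induced cleaved-PARP levels.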
# Tests used:
# Experiment in all cases: cleaved PARP positive nuclei fraction relative to DMSO control; melanoma cells; higher = more apoptosis
# Conditions in all cases: library dose: low library concentration; 72 h
# MZ2-MEL = test system: MZ2-MEL
# MeWo = test system: MeWo
# RPMI7951 = test system: RPMI7951
# RVH-421 = test system: RVH-421
# SkMel28 = test system: SkMel28
# SkMel2 = test system: SkMel2
# SkMel30 = test system: SkMel30
# SkMel5 = test system: SkMel5
# UACC257 = test system: UACC257
# UACC62 = test system: UACC62
# WM115 = test system: WM115
# WM1716 = test system: WM1716
# WM1745 = test system: WM1745
# WM3526 = test system: WM3526
# WM3619 = test system: WM3619
# WM451Lu = test system: WM451Lu
SMILES,cleaved PARP positive nuclei fraction (MZ2-MEL) [%],cleaved PARP positive nuclei fraction (MeWo) [%],cleaved PARP positive nuclei fraction (RPMI7951) [%],cleaved PARP positive nuclei fraction (RVH-421) [%],cleaved PARP positive nuclei fraction (SkMel28) [%],cleaved PARP positive nuclei fraction (SkMel2) [%],cleaved PARP positive nuclei fraction (SkMel30) [%],cleaved PARP positive nuclei fraction (SkMel5) [%],cleaved PARP positive nuclei fraction (UACC257) [%],cleaved PARP positive nuclei fraction (UACC62) [%],cleaved PARP positive nuclei fraction (WM115) [%],cleaved PARP positive nuclei fraction (WM1716) [%],cleaved PARP positive nuclei fraction (WM1745) [%],cleaved PARP positive nuclei fraction (WM3526) [%],cleaved PARP positive nuclei fraction (WM3619) [%],cleaved PARP positive nuclei fraction (WM451Lu) [%]
"Cc1cc(Nc2cc(N3CCN(C)CC3)nc(Sc3ccc(NC(=O)C4CC4)cc3)n2)n[nH]1 [Tozasertib] + CC(C)(C)c1cnc(CSc2cnc(NC(=O)C3CCNCC3)s2)o1 [SNS-032] (first compound 0.006 µM, partner dose 0.01 µM)",135,73.3,47.1,179,65.2,146,143,144,84.5,194,67.5,47.3,89.5,182,98.3,120
"O=c1[nH]nc(Sc2ncc([N+](=O)[O-])s2)n1-c1ccc2c(c1)OCCO2 + O=C(Nc1cccc(Cl)c1)Nc1ncc(CCNc2ncnc3ccsc23)s1 [SNS314] (first compound 0.2 µM, partner dose 0.0008 µM)",98.3,158,231,60.6,28.5,98.4,59,149,141,101,204,48.9,84,64.4,99.3,207
"N#CC[C@H](C1CCCC1)n1cc(-c2ncnc3[nH]ccc23)cn1 [ruxolitinib] + CN(C)S(=O)(=O)c1ccc2c(c1)/C(=C/c1cc3c([nH]1)CCCC3)C(=O)N2 [SU6656] (first compound 1 µM, partner dose 0.4 µM)",154,59.2,114,118,95.6,20.8,61.4,72.9,102,87.8,61.2,130,103,177,90.2,87.6
"COc1cc([C@@H]2c3cc4c(cc3[C@@H](O[C@@H]3O[C@@H]5CO[C@@H](C)O[C@H]5[C@H](O)[C@H]3O)[C@H]3COC(=O)[C@H]23)OCO4)cc(OC)c1O [etoposide] + CCCCCCCCCCCC1=C(O)C(=O)C=C(O)C1=O [Embelin] (first compound 0.02 µM, partner dose 1.2 µM)",68.9,51.9,77.2,126,144,108,63.7,64.6,151,44.6,128,319,98.4,67.4,101,128
"COc1cc([C@@H]2c3cc4c(cc3[C@@H](O[C@@H]3O[C@@H]5CO[C@@H](C)O[C@H]5[C@H](O)[C@H]3O)[C@H]3COC(=O)[C@H]23)OCO4)cc(OC)c1O [etoposide] + O=C(Nc1ccccc1)c1cc([N+](=O)[O-])ccc1Cl [GW9662] (first compound 0.02 µM, partner dose 2 µM)",120,243,54.3,64.5,186,90.5,28.9,74.3,68.4,183,112,196,,92.1,,131
"CCCCCCCCCCCCCCCCCCOP(=O)([O-])OC1CC[N+](C)(C)CC1 [Perifosine] + O=C(O)c1ccc(-c2c[nH]c3ncc(-c4ccccc4)cc23)cc1C1CCCC1 [GSK650394] (first compound 0.4 µM, partner dose 0.16 µM)",111,88.5,153,44.8,34.3,165,61.2,67.2,58.1,138,92.2,150,96.8,35,108,49.5
"Cc1cn(-c2cc(NC(=O)c3ccc(C)c(Nc4nccc(-c5cccnc5)n4)c3)cc(C(F)(F)F)c2)cn1 [nilotinib] + CO[C@@H]1[C@H](N(C)C(=O)c2ccccc2)C[C@H]2O[C@]1(C)n1c3ccccc3c3c4c(c5c6ccccc6n2c5c31)C(=O)NC4 [Midostaurin] (first compound 0.2 µM, partner dose 0.08 µM)",36.9,134,72.4,125,75.8,310,89,301,73.9,41.9,92.5,204,132,338,106,82.6
"Cc1cn(-c2cc(NC(=O)c3ccc(C)c(Nc4nccc(-c5cccnc5)n4)c3)cc(C(F)(F)F)c2)cn1 [nilotinib] + O=C(Nc1cccc(Cl)c1)Nc1ncc(CCNc2ncnc3ccsc23)s1 [SNS314] (first compound 0.2 µM, partner dose 0.0008 µM)",111,51.3,91.4,45.8,161,128,55.5,62.8,226,229,87.8,136,113,32.3,105,100
"Cc1cn(-c2cc(NC(=O)c3ccc(C)c(Nc4nccc(-c5cccnc5)n4)c3)cc(C(F)(F)F)c2)cn1 [nilotinib] + c1cc(-c2cnn3cc(-c4ccc(OCCN5CCCCC5)cc4)cnc23)ccn1 [Dorsomorphin] (first compound 0.2 µM, partner dose 0.4 µM)",37,73.2,150,64.9,110,59.1,39.2,177,160,66.6,56.1,45.5,113,70.8,79.7,136
"CC[C@]1(O)C[C@H]2CN(CCc3c([nH]c4ccccc34)[C@@](C(=O)OC)(c3cc4c(cc3OC)N(C=O)[C@H]3[C@@](O)(C(=O)OC)[C@H](OC(C)=O)[C@]5(CC)C=CCN6CC[C@]43[C@@H]65)C2)C1 [vincristine] + Oc1cc(-c2nc(-c3ccccc3)[nH]c2-c2ccncc2)ccc1Cl [L779450] (first compound 0.0001 µM, partner dose 0.2 µM)",177,132,127,126,225,146,128,80.5,97.4,371,234,143,96.4,127,154,59.7
"COc1cc([C@@H]2c3cc4c(cc3[C@@H](O[C@@H]3O[C@@H]5CO[C@@H](C)O[C@H]5[C@H](O)[C@H]3O)[C@H]3COC(=O)[C@H]23)OCO4)cc(OC)c1O [etoposide] + CN(C)S(=O)(=O)c1ccc2c(c1)/C(=C/c1cc3c([nH]1)CCCC3)C(=O)N2 [SU6656] (first compound 0.02 µM, partner dose 0.4 µM)",92.9,153,94.4,211,62.7,84,139,67.4,98.3,168,67.7,124,76.8,36.1,106,19.9
"CC[C@]1(O)C[C@H]2CN(CCc3c([nH]c4ccccc34)[C@@](C(=O)OC)(c3cc4c(cc3OC)N(C=O)[C@H]3[C@@](O)(C(=O)OC)[C@H](OC(C)=O)[C@]5(CC)C=CCN6CC[C@]43[C@@H]65)C2)C1 [vincristine] + O=c1[nH]nc(Sc2ncc([N+](=O)[O-])s2)n1-c1ccc2c(c1)OCCO2 [BI78D3] (first compound 0.0001 µM, partner dose 0.2 µM)",70.7,126,254,64.5,43.1,84.5,355,,,211,953,583,288,306,156,41.4
"CCCCCCCCCCCCCCCCCCOP(=O)([O-])OC1CC[N+](C)(C)CC1 [Perifosine] + Cn1c(Nc2ccc(C(F)(F)F)cc2)nc2cc(Oc3ccnc(-c4ncc(C(F)(F)F)[nH]4)c3)ccc21 [CHIR265] (first compound 0.4 µM, partner dose 0.08 µM)",74.9,66.6,90.3,177,79.3,347,157,,,553,399,41.4,146,60.4,128,52.3
"COc1cc([C@@H]2c3cc4c(cc3[C@@H](O[C@@H]3O[C@@H]5CO[C@@H](C)O[C@H]5[C@H](O)[C@H]3O)[C@H]3COC(=O)[C@H]23)OCO4)cc(OC)c1O [etoposide] + C[C@@H](N)c1ccc(C(=O)Nc2ccnc3[nH]ccc23)cc1 [RKI983] (first compound 0.02 µM, partner dose 0.4 µM)",85.4,100,41.3,251,119,184,116,,,153,102,30.5,106,47.7,84.6,

# Taken from above for reference:
SMILES,cleaved PARP positive nuclei fraction (MZ2-MEL) [%],cleaved PARP positive nuclei fraction (MeWo) [%],cleaved PARP positive nuclei fraction (RPMI7951) [%],cleaved PARP positive nuclei fraction (RVH-421) [%],cleaved PARP positive nuclei fraction (SkMel28) [%],cleaved PARP positive nuclei fraction (SkMel2) [%],cleaved PARP positive nuclei fraction (SkMel30) [%],cleaved PARP positive nuclei fraction (SkMel5) [%],cleaved PARP positive nuclei fraction (UACC257) [%],cleaved PARP positive nuclei fraction (UACC62) [%],cleaved PARP positive nuclei fraction (WM115) [%],cleaved PARP positive nuclei fraction (WM1716) [%],cleaved PARP positive nuclei fraction (WM1745) [%],cleaved PARP positive nuclei fraction (WM3526) [%],cleaved PARP positive nuclei fraction (WM3619) [%],cleaved PARP positive nuclei fraction (WM451Lu) [%]
"COc1cc([C@@H]2c3cc4c(cc3[C@@H](O[C@@H]3O[C@@H]5CO[C@@H](C)O[C@H]5[C@H](O)[C@H]3O)[C@H]3COC(=O)[C@H]23)OCO4)cc(OC)c1O [etoposide] + CN(C)S(=O)(=O)c1ccc2c(c1)/C(=C/c1cc3c([nH]1)CCCC3)C(=O)N2 [SU6656] (first compound 0.02 µM, partner dose 0.4 µM)",92.9,153,94.4,211,62.7,84,139,67.4,98.3,168,67.7,124,76.8,36.1,106,19.9
"CC[C@]1(O)C[C@H]2CN(CCc3c([nH]c4ccccc34)[C@@](C(=O)OC)(c3cc4c(cc3OC)N(C=O)[C@H]3[C@@](O)(C(=O)OC)[C@H](OC(C)=O)[C@]5(CC)C=CCN6CC[C@]43[C@@H]65)C2)C1 [vincristine] + O=c1[nH]nc(Sc2ncc([N+](=O)[O-])s2)n1-c1ccc2c(c1)OCCO2 [BI78D3] (first compound 0.0001 µM, partner dose 0.2 µM)",70.7,126,254,64.5,43.1,84.5,355,,,211,953,583,288,306,156,41.4
